From patent US9988405B2, “O-phenyl chalcone compounds and uses thereof” (Neopanora Bio-technology (Zhuhai) Ltd., priority 2014, dated 2018) come the findings set out here.

Common to all, as to type: cell-based
Assay [1] deals with human lung cancer cells A549. The experiment in a line: SRB anti-proliferative assay, A549. The note with it: A549, 48 h, read-out: Anti-proliferative IC50, A549. As for the experimental part:
(§1) The present example evaluated the anti-tumor activity of the molecules provided by the present invention. The present example mainly used a method with SRB (sulforhodamine B) dying, in which proteins in the cell were stained with SRB dye to determine protein content in the cell so as to characterize cell growth density. Firstly, the test compound was formulated into a stock solution (10 mM), which was stored at 4° C. in a refrigerator. Prior to beginning the assay, the stock solution was diluted with DMSO into a series of different concentrations. The required concentrations were obtained by diluting with complete growth medium. Well growing cells were seeded in a 96-well plate (5000 cells/well, 100 uL) and cultured in an incubator at 37° C., 5% CO2, and 90% RH. 24 h later, the prepared compound solution (100 μL) was slowly added to cell solution in the 96-well plate, and the well with DMSO (final concentration 0.5%) instead of the drug was used as a drug free control. The plate was incubated for 48 h. In addition, a day 0 plate that was drug free was directly detected after cell seeded in the plate for 24 h. The 96-well plate was taken out and added with trichloroacetic acid (50 μL, final concentration 10%). […]
(§2) The plate was washed with ultrapure water and air-dried. […] The optical density (OD) was recorded on a TECAN Infinite M200 Pro multimode reader at 515 nm. […]

In assay [2] the test system is human breast cancer cells MCF7. In words: SRB anti-proliferative assay, MCF-7. Conditions: MCF7, 48 h, read-out: Anti-proliferative IC50, MCF-7. As for the experimental part:
as §1, §2

The test system of assay [3] is human nasopharyngeal carcinoma cells CNE2. In words: SRB anti-proliferative assay, CNE2. The note with it: CNE-2, 48 h, read-out: Anti-proliferative IC50, CNE2. How it is done: as §1, §2
The test system of assay [4] is human colon cancer cells SW480. The experiment in a line: SRB anti-proliferative assay, SW480. The note with it: SW480, 48 h, read-out: Anti-proliferative IC50, SW480. How it is done: as §1, §2

As for `COc1cc2c(c(OC)c1OC)-c1ccc(OC)c(=O)cc1[C@@H](NC(C)=O)CC2` [COL, colchicine, reference compound], the IC50 (commonly the concentration at which inhibition is half-maximal) in assay [1] was 36 nM; in assay [2] it was 19 nM; in assay [3] it was 34 nM; in assay [4] it was 33 nM.
